Target: human Cav1.2 (Homo sapiens, UniProt Q13936)

By UniProt entry, the sequences of proteins in these tests, tags left out.
UniProt Q13936, whole entry: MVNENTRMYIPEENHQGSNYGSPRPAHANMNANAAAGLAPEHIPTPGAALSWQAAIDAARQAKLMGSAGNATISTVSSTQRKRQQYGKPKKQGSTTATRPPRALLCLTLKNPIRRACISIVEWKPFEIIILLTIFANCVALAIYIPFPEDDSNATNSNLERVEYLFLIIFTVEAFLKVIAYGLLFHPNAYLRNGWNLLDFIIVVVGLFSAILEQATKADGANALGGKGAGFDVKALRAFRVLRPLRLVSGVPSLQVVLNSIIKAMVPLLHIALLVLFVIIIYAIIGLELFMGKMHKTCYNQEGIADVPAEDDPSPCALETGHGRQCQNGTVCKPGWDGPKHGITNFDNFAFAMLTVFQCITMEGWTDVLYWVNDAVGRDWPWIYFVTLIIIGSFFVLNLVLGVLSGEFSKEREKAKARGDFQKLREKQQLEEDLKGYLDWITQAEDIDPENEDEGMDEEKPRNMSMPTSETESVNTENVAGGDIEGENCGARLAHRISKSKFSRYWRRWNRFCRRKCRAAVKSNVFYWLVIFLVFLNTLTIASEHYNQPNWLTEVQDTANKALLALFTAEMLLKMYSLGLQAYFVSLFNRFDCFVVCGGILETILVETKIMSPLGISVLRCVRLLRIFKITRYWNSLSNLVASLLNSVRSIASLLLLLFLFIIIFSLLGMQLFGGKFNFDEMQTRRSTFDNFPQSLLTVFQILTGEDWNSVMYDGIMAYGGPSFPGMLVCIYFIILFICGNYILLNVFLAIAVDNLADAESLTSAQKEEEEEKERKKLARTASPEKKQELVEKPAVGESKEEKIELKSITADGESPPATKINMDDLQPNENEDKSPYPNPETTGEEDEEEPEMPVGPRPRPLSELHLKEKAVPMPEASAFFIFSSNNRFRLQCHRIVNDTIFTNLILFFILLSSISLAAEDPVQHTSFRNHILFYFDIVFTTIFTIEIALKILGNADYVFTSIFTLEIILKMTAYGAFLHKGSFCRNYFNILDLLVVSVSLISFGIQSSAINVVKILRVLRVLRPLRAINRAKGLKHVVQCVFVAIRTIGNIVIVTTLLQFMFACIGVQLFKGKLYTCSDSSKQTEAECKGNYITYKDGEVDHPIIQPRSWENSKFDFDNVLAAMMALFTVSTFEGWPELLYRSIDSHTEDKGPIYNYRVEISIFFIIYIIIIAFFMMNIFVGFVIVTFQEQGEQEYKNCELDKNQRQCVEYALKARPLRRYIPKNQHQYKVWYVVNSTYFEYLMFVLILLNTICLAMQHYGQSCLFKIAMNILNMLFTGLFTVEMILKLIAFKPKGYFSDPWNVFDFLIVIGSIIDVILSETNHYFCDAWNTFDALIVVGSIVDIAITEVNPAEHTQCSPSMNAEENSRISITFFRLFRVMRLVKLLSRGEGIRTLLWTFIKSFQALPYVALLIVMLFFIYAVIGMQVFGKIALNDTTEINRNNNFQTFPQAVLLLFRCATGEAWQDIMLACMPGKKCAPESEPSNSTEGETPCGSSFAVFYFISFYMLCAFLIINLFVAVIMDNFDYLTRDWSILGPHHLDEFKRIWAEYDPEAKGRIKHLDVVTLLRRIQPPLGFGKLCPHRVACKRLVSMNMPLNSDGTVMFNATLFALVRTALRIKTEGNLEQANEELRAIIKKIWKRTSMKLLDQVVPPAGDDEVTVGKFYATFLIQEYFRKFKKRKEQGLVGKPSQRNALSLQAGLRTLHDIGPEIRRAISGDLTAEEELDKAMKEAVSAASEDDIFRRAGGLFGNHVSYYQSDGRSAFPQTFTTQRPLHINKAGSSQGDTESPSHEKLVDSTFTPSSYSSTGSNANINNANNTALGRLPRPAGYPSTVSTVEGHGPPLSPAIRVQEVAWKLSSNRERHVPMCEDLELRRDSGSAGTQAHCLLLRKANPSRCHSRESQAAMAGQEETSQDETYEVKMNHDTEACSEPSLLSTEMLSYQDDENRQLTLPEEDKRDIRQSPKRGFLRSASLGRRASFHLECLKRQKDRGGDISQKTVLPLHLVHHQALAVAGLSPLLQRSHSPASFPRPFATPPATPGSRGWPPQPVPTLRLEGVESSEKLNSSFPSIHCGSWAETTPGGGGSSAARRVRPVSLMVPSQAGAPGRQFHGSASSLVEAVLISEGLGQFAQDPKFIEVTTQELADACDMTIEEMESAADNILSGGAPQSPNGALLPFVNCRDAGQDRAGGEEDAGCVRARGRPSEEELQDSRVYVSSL

## COC(=O)C1=C(C)NC(C)=C(C(=O)OC)C1c1ccccc1[N+](=O)[O-] [nifedipine]
  IC50: The IC50 values of nifedipine and verapamil remained similar with or without MNI-1.

— article PMC9891081 (Cell, 2022)
